In the supplement of paper PMC12889115:
This is one part of the list. These are raw signals, not scaled to a control.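 First-pass screen: polymyxin B was added at a level that permeabilizes the Salmonella outer membrane while sparing the inner membrane. DMSO wells, with and without polymyxin B, defined maximum growth. Because plates differed from one another, each plate's data were ranked separately and the compounds with the lowest OD600 were carried forward as hits.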

System: Salmonella enterica serovar Typhimurium SL1344
Test: bacterial growth OD600 after 18 h with compound and polymyxin B; higher = more bacterial growth (less inhibition)
Details: 50 µM, Mueller-Hinton broth

SMILES | bacterial growth OD600 (polymyxin B 1 µg/mL) | bacterial growth OD600 (polymyxin B 0.75 µg/mL)
CCc1csc(CNC(=O)c2ccc(N(C)C(C)C)nc2)n1 | 0.754 | –
COc1cc(-c2ccc(C)s2)cc2c1OCCN(C1CCCC1)C2 | – | 0.747
O=C(NC1CCCCC1)C1CCCN(C2CCN(Cc3ccccc3)CC2)C1 (configuration not stated) | – | 0.885
Cc1ccc(-c2n[nH]cc2CN2CCN(c3ccccn3)CC2)cc1C | 0.115 | –
O=C(NCCc1cccc2ccccc12)c1cc(CN2CCOCC2)on1 | 1.1 | –
COc1cccc(-c2ccc(NC(=O)C3CCCN3Cc3cccnc3)cc2)c1 (configuration not stated) | – | 0.524
COc1ccc(CC2(CCC(=O)NCc3nc(-c4ccccc4)no3)CCC(=O)N2)c(F)c1 (configuration not stated) | – | 0.683
CSc1ccccc1C(=O)N1CCCC(CCC(=O)NC2CC2)C1 (configuration not stated) | 1.05 | –
O=C1N(Cc2cccc(F)c2F)CCCC1(O)CN1CCOCC1 (configuration not stated) | 0.892 | –
COc1cccc(CN2C[C@@H]3C[C@@H](c4cccs4)N4CCC[C@@]34C2=O)c1 | – | 0.79
O=C(CCc1ccncc1)N1CCCC(CCc2ccc(F)c(F)c2)C1 (configuration not stated) | – | 0.003
COc1cc(C(=O)NCCCC2CCCC2)ccc1OC1CCN(C(C)=O)CC1 | 1.04 | –
CCOC(=O)C1(CC2CC2)CCN(Cc2cnc(-c3ccc(OC)cc3)nc2)CC1 | – | 0.696
CCOC(=O)c1n[nH]cc1CN1CCC(Cc2cccc(OC)c2)(C(=O)OCC)CC1 | – | 0.769
O=C(NCc1cccc2[nH]ccc12)C1CCCN(C2CCN(C(=O)C3CC3)CC2)C1 (configuration not stated) | 0.884 | –
O=C(Nc1cnn(-c2ccc(C(=O)N3CCCC(c4ccccc4)C3)cc2)c1)c1cccnc1 (configuration not stated) | – | 0.021

SMILES | bacterial growth OD600 (polymyxin B 1 µg/mL) | bacterial growth OD600 (polymyxin B 0.75 µg/mL)
COc1ccc(C(=O)NC(C)c2ccccc2)cc1OC1CCN(C(C)=O)CC1 (configuration not stated) | 1 | –
CCc1ccc(CN2CCC(Oc3cc(OC)ccc3C(=O)N3CCCC3)CC2)cc1 | 1.24 | –
O=C(NCCc1cnccn1)c1coc(COc2ccc(F)cc2Cl)n1 | 0.938 | –
CCOC(=O)C1(Cc2ccc(F)cc2F)CCCN(C(=O)c2ccc(OC)c(F)c2)C1 (configuration not stated) | 0.021 | –
O=C(Nc1cccc(-c2ccc(F)cc2)c1)C1CCCN(C(=O)c2cn[nH]c2)C1 (configuration not stated) | 0.952 | –
O=C(CC1CC1)NC1CC(=O)N(CCc2cccc(Cl)c2)C1 (configuration not stated) | 0.929 | –
COc1ccc(CN2C(=O)O[C@@H]3CN(Cc4ccccc4F)C[C@@H]32)cc1OC | 1.16 | –
COc1cc(CC2(CCC(=O)NCc3c(F)ccc(C)c3F)CCC(=O)N2)ccc1F (configuration not stated) | – | 0.832
COCC1CCN(C(=O)c2cc(COc3c(C)cccc3C)on2)C1 (configuration not stated) | 0.987 | –
COc1ccc(Cl)cc1NC(=O)CCC1CCCN(C(=O)Cc2c(C)noc2C)C1 (configuration not stated) | 0.885 | –
COC(=O)c1cc(CNC(=O)[C@@H]2C[C@@H]3C=C[C@H]2C3)cc(NS(=O)(=O)c2ccccc2Cl)c1 | – | 0.971
O=C1CN(C(=O)CC(c2ccccc2)c2ccc(Cl)cc2)CCN1 (configuration not stated) | 0.899 | –
CCOC(=O)c1[nH]c(C)c(C(=O)N2CCCC(C(=O)c3ccc(OC)c(F)c3)C2)c1C (configuration not stated) | 0.887 | –
CSc1ccc(CNC(=O)C2CCC(=O)N(CCN3CCOCC3)C2)cc1 (configuration not stated) | 1.04 | –
CC1(CCC(=O)N2CCCC2C(=O)Nc2ccccc2Oc2cccnc2)CC1 (configuration not stated) | 0.952 | –
CCOC(=O)C1(Cc2ccccc2C(F)(F)F)CCN(C(=O)c2ccc[n+]([O-])c2)CC1 | 0.879 | –

Entries of single compounds from above.
CCc1ccc(CN2CCC(Oc3cc(OC)ccc3C(=O)N3CCCC3)CC2)cc1 as listed: bacterial growth OD600 (polymyxin B 1 µg/mL): 1.24
O=C(Nc1cccc(-c2ccc(F)cc2)c1)C1CCCN(C(=O)c2cn[nH]c2)C1 (configuration not stated) as listed: bacterial growth OD600 (polymyxin B 1 µg/mL): 0.952
